# The other results are listed elsewhere or left out.
# B1: Spy 2007 (Streptococcus pyogenes), Q99XV3 (protein)
# chain: MKKGFFLMAMVVSLVMIAGCDKSANPKQPTQGMSVVTSFYPMYAMTKEVSGDLNDVRMIQSGAGIHSFEPSVNDVAAIYDADLFVYHSHTLEAWARDLDPNLKKSKVDVFEASKPLTLDRVKGLEDMEVTQGIDPATLYDPHTWTDPVLAGEEAVNIAKELGRLDPKHKDSYTKNAKAFKKEAEQLTEEYTQKFKKVRSKTFVTQHTAFSYLAKRFGLKQLGISGISPEQEPSPRQLKEIQDFVKEYNVKTIFAEDNVNPKIAHAIAKSTGAKVKTLSPLEAAPSGNKTYLENLRANLEVLYQQLK
# Experiments:
# Assay in all cases: glycan array binding signal (z-score within array); higher = stronger binding
# Details in all cases: glycan notation: IUPAC condensed, linker removed
# [1] = target: Neu5Ac(a2-3)Gal(b1-4)[Fuc(a1-3)]GlcNAc(b1-3)Gal(b1-4)[Fuc(a1-3)]GlcNAc(b1-3)Gal(b1-4)[Fuc(a1-3)]GlcNAc
# In short: (§1)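 Glycan array data were curated from 3228 arrays in the Consortium for Functional Glycomics database and kept only where the protein sequence was available. Glycan names were converted to IUPAC-condensed notation, and columns mapping to the same glycan were averaged. The binding signal is a within-array Z-score, averaged across arrays of the same protein sequence at different concentrations or buffers and across linkers. Negative Z-scores can be read as non-binding.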
# [2] = target: Neu5Ac(a2-3)Gal(b1-4)[Fuc(a1-3)]GlcNAc(b1-6)[Gal(b1-3)]GalNAc
# In short: as §1
# [3] = target: Neu5Ac(a2-3)Gal(b1-4)[Fuc(a1-3)]GlcNAc(b1-6)[Neu5Ac(a2-3)Gal(b1-3)]GalNAc
# In short: as §1
# [4] = target: Neu5Ac(a2-3)Gal(b1-4)[Fuc(a1-3)]GlcNAc6S
# In short: as §1
# [5] = target: Neu5Ac(a2-3)Gal6S(b1-4)GlcNAc
# In short: as §1
# [6] = target: Neu5Ac(a2-3)Gal6S(b1-4)[Fuc(a1-3)]GlcNAc
# In short: as §1
# [7] = target: Neu5Ac(a2-3)GalNAc
# In short: as §1
# [8] = target: Neu5Ac(a2-3)GalNAc(b1-4)GlcNAc
# In short: as §1
# [9] = target: Neu5Ac(a2-3)[GalNAc(b1-4)]Gal(b1-4)Glc
# In short: as §1
# [10] = target: Neu5Ac(a2-3)[GalNAc(b1-4)]Gal(b1-4)GlcNAc
# In short: as §1
# [11] = target: Neu5Ac(a2-3)[Neu5Ac(a2-6)]GalNAc
# In short: as §1
# [12] = target: Neu5Ac(a2-6)Gal
# In short: as §1
# [13] = target: Neu5Ac(a2-6)Gal(b1-4)Glc
# In short: as §1
# [14] = target: Neu5Ac(a2-6)Gal(b1-4)GlcNAc
# In short: as §1
# [15] = target: Neu5Ac(a2-6)Gal(b1-4)GlcNAc(b1-2)Man(a1-3)Man(b1-4)GlcNAc(b1-4)GlcNAc
# In short: as §1
# [16] = target: Neu5Ac(a2-6)Gal(b1-4)GlcNAc(b1-2)Man(a1-3)[Gal(b1-4)GlcNAc(b1-2)Man(a1-6)]Man(b1-4)GlcNAc(b1-4)GlcNAc
# In short: as §1
# [17] = target: Neu5Ac(a2-6)Gal(b1-4)GlcNAc(b1-2)Man(a1-3)[GlcNAc(b1-2)Man(a1-6)]Man(b1-4)GlcNAc(b1-4)GlcNAc
# In short: as §1
# [18] = target: Neu5Ac(a2-6)Gal(b1-4)GlcNAc(b1-2)Man(a1-3)[GlcNAc(b1-2)Man(b1-4)GlcNAc(b1-2)Man(a1-6)]Man(b1-4)GlcNAc(b1-4)GlcNAc
# In short: as §1
# [19] = target: Neu5Ac(a2-6)Gal(b1-4)GlcNAc(b1-2)Man(a1-3)[Man(a1-6)]Man(b1-4)GlcNAc(b1-4)GlcNAc
# In short: as §1
# [20] = target: Neu5Ac(a2-6)Gal(b1-4)GlcNAc(b1-2)Man(a1-3)[Neu5Ac(a2-6)Gal(b1-4)GlcNAc(b1-2)Man(a1-6)]Man(b1-4)GlcNAc(b1-4)GlcNAc
# In short: as §1
# [21] = target: Neu5Ac(a2-6)Gal(b1-4)GlcNAc(b1-2)Man(a1-6)Man(b1-4)GlcNAc(b1-4)GlcNAc
# In short: as §1
# [22] = target: Neu5Ac(a2-6)Gal(b1-4)GlcNAc(b1-2)Man(a1-6)[Gal(b1-4)GlcNAc(b1-2)Man(a1-3)]Man(b1-4)GlcNAc(b1-4)GlcNAc
# In short: as §1
# [23] = target: Neu5Ac(a2-6)Gal(b1-4)GlcNAc(b1-2)Man(a1-6)[GlcNAc(b1-2)Man(a1-3)]Man(b1-4)GlcNAc(b1-4)GlcNAc
# In short: as §1
# [24] = target: Neu5Ac(a2-6)Gal(b1-4)GlcNAc(b1-2)Man(a1-6)[Man(a1-3)]Man(b1-4)GlcNAc(b1-4)GlcNAc
# In short: as §1
# [25] = target: Neu5Ac(a2-6)Gal(b1-4)GlcNAc(b1-3)Gal(b1-3)GlcNAc
# In short: as §1
# [26] = target: Neu5Ac(a2-6)Gal(b1-4)GlcNAc(b1-3)Gal(b1-4)GlcNAc
# In short: as §1
# [27] = target: Neu5Ac(a2-6)Gal(b1-4)GlcNAc(b1-3)Gal(b1-4)GlcNAc(b1-3)Gal(b1-4)GlcNAc
# In short: as §1
# [28] = target: Neu5Ac(a2-6)Gal(b1-4)GlcNAc(b1-3)Gal(b1-4)[Fuc(a1-3)]GlcNAc(b1-3)Gal(b1-4)[Fuc(a1-3)]GlcNAc
# In short: as §1
# [29] = target: Neu5Ac(a2-6)Gal(b1-4)GlcNAc(b1-3)GalNAc
# In short: as §1
# [30] = target: Neu5Ac(a2-6)Gal(b1-4)GlcNAc6S
# In short: as §1
# [31] = target: Neu5Ac(a2-6)GalNAc
# In short: as §1
# [32] = target: Neu5Ac(a2-6)GalNAc(b1-4)GlcNAc
# In short: as §1
# [33] = target: Neu5Ac(a2-6)GlcNAc(b1-4)GlcNAc
# In short: as §1
# [34] = target: Neu5Ac(a2-6)GlcNAc(b1-4)GlcNAc(b1-4)GlcNAc
# In short: as §1
# [35] = target: Neu5Ac(a2-8)Neu5Ac
# In short: as §1
# [36] = target: Neu5Ac(a2-8)Neu5Ac(a2-3)Gal(b1-4)Glc
# In short: as §1
# [37] = target: Neu5Ac(a2-8)Neu5Ac(a2-3)[GalNAc(b1-4)]Gal(b1-4)Glc
# In short: as §1
# [38] = target: Neu5Ac(a2-8)Neu5Ac(a2-8)Neu5Ac
# In short: as §1
# [39] = target: Neu5Ac(a2-8)Neu5Ac(a2-8)Neu5Ac(a2-3)Gal(b1-4)Glc
# In short: as §1
# [40] = target: Neu5Ac(a2-8)Neu5Ac(a2-8)Neu5Ac(a2-3)[GalNAc(b1-4)]Gal(b1-4)Glc
# In short: as §1
# [41] = target: Neu5Ac(a2-8)Neu5Ac(a2-8)Neu5Ac(a2-8)Neu5Ac(a2-3)[GalNAc(b1-4)]Gal(b1-4)Glc
# In short: as §1
# [42] = target: Neu5Ac(b2-6)Gal(b1-4)GlcNAc
# In short: as §1
# [43] = target: Neu5Ac(b2-6)GalNAc
# In short: as §1
# [44] = target: Neu5Ac9Ac(a2-3)Gal(b1-3)GlcNAc
# In short: as §1
# [45] = target: Neu5Ac9Ac(a2-3)Gal(b1-4)GlcNAc
# In short: as §1
# [46] = target: Neu5Ac9Ac(a2-6)Gal(b1-4)GlcNAc
# In short: as §1
# [47] = target: Neu5Gc(a2-3)Gal(b1-3)GlcNAc
# In short: as §1
# [48] = target: Neu5Gc(a2-3)Gal(b1-3)[Fuc(a1-4)]GlcNAc
# In short: as §1
# [49] = target: Neu5Gc(a2-3)Gal(b1-4)Glc
# In short: as §1
# [50] = target: Neu5Gc(a2-3)Gal(b1-4)GlcNAc
# In short: as §1
# [51] = target: Neu5Gc(a2-3)Gal(b1-4)[Fuc(a1-3)]GlcNAc
# In short: as §1
# [52] = target: Neu5Gc(a2-6)Gal(b1-4)GlcNAc
# In short: as §1
# [53] = target: Neu5Gc(a2-6)GalNAc
# In short: as §1
# [54] = target: Neu5Gc(b2-6)Gal(b1-4)GlcNAc
# In short: as §1
binder,measurement,setting,value
B1,glycan array binding signal (z-score),[1],-0.893
same,glycan array binding signal (z-score),[2],0.456
same,glycan array binding signal (z-score),[3],0.152
same,glycan array binding signal (z-score),[4],0.692
same,glycan array binding signal (z-score),[5],0.163
same,glycan array binding signal (z-score),[6],0.007
same,glycan array binding signal (z-score),[7],-0.385
same,glycan array binding signal (z-score),[8],0.05
same,glycan array binding signal (z-score),[9],0.84
same,glycan array binding signal (z-score),[10],0.241
same,glycan array binding signal (z-score),[11],0.302
same,glycan array binding signal (z-score),[12],0.439
same,glycan array binding signal (z-score),[13],-0.237
same,glycan array binding signal (z-score),[14],0.272
same,glycan array binding signal (z-score),[15],-0.568
same,glycan array binding signal (z-score),[16],-0.946
same,glycan array binding signal (z-score),[17],-0.752
same,glycan array binding signal (z-score),[18],-0.352
same,glycan array binding signal (z-score),[19],-0.459
same,glycan array binding signal (z-score),[20],1.43
same,glycan array binding signal (z-score),[21],-0.514
same,glycan array binding signal (z-score),[22],0.092
same,glycan array binding signal (z-score),[23],-0.911
same,glycan array binding signal (z-score),[24],-0.718
same,glycan array binding signal (z-score),[25],-0.35
same,glycan array binding signal (z-score),[26],-0.537
same,glycan array binding signal (z-score),[27],-0.381
same,glycan array binding signal (z-score),[28],0.149
same,glycan array binding signal (z-score),[29],1.02
same,glycan array binding signal (z-score),[30],0.968
same,glycan array binding signal (z-score),[31],-0.679
same,glycan array binding signal (z-score),[32],0.257
same,glycan array binding signal (z-score),[33],-0.636
same,glycan array binding signal (z-score),[34],-1.12
same,glycan array binding signal (z-score),[35],-0.108
same,glycan array binding signal (z-score),[36],-0.172
same,glycan array binding signal (z-score),[37],-0.393
same,glycan array binding signal (z-score),[38],-0.433
same,glycan array binding signal (z-score),[39],0.264
same,glycan array binding signal (z-score),[40],-0.652
same,glycan array binding signal (z-score),[41],-0.069
same,glycan array binding signal (z-score),[42],-0.452
same,glycan array binding signal (z-score),[43],-0.52
same,glycan array binding signal (z-score),[44],-0.298
same,glycan array binding signal (z-score),[45],0.06
same,glycan array binding signal (z-score),[46],-0.121
same,glycan array binding signal (z-score),[47],-0.593
same,glycan array binding signal (z-score),[48],0.276
same,glycan array binding signal (z-score),[49],0.389
same,glycan array binding signal (z-score),[50],-0.723
same,glycan array binding signal (z-score),[51],0.352
same,glycan array binding signal (z-score),[52],-0.156
same,glycan array binding signal (z-score),[53],-0.531
same,glycan array binding signal (z-score),[54],-0.518

# Another view of part of the listing above:
binder	measurement	setting	value
B1	glycan array binding signal (z-score)	[26]	-0.537
same	glycan array binding signal (z-score)	[27]	-0.381
